# Library screening results

From ChEMBL document CHEMBL3988442, “University of Dundee, Small-Polar-MMV Screening Library” (2021).

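Viability assay of Plasmodium falciparum sporozoites; the read-out is not stated. The concentration is filed as 10 mM, unlikely as a test dose, so the dose is not known. The record gives no direction; compounds that gave an IC50 in retests scored well above the rest, so higher reads as lower viability. Strong results were mostly tested again. Size under these conditions: about 34,000 compounds, about 280 of them at 50% or above in at least one test.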

The filed quantity is “Percent Effect” (%).
The controls that fix the scale are not given in the record; negative values are as filed.
The compounds are a random part of those screened.
Two or more numbers in one place are separate tests of the same structure; such repeats can differ widely.

SMILES	percent effect
CC1c2ncc(Cn3cccn3)n2CCN1Cc1ccccn1.O=C(O)C(F)(F)F.O=C(O)C(F)(F)F (stereo unspecified)	-0.5063
CC(C)c1nn(C)c(N(C)C)c1CNCC(O)c1ccccc1F (stereo unspecified)	-2.944
Cc1occc(=O)c1OCC(=O)N1CCc2ccccc2C1	-29.34
O=C(O)C(F)(F)F.O=C(O)C(F)(F)F.c1ccc(CO[C@H]2CO[C@@]3(CCN(Cc4ccoc4)C3)C2)nc1	-14.25
CN(C(=O)c1ccccc1F)[C@@H]1CC[C@@H](O)[C@@H]1O	-4.092
COc1c(C2CCCN2Cc2nnc(C3CC3)o2)c(C)nn1C (stereo unspecified)	1.862
COc1cccc(CN2CCCC2c2cncc(Nc3nncs3)n2)c1 (stereo unspecified)	6.33
CCn1ncc2c1CCCC2NCC1=Cc2ccccc2OC1 (stereo unspecified)	-17.2 & 75.18 & -22.5
Cc1cnn(CC2CCCN2Cc2noc(C3CC3)n2)c1 (stereo unspecified)	-0.2019
CC(=O)Nc1nc(C(=O)N2CCCCC2Cn2cc(C)cn2)cs1 (stereo unspecified)	-12.14
Cc1cnc(CN(Cc2ccc(C#N)cc2F)C2CCN(C)C2)o1 (stereo unspecified)	-6.563
Cc1cc(NC(=O)Nc2ccc3c(ccn3CCN(C)C)c2)n(C)n1	20.43 & 21.83
CN1CCN(C(=O)NC2CC2)Cc2cccnc21.O=C(O)C(F)(F)F	4.004
C1CN(c2nc(C3CC3)ns2)CCO1	8.29 & 2.983
CCN(CC)C(=O)[C@@H]1C[C@@H](N)CN1c1nc(N2CCCC2)nc(C)c1C	10.48
COCCO[C@H]1CCN(C(=O)c2ccno2)[C@H]1Cc1cnn(C)c1	-19.39
Oc1cccc(CNC2CCN(CCc3ccncc3)CC2)c1	-0.1183
Nc1cc(N2CCCC(CO)(Cc3ccccc3F)C2)nc(N)n1 (stereo unspecified)	-9.282
CN(CC(=O)NCc1ccco1)Cc1nc2c(s1)CCCC2	18.7 & 19.42
CCS(=O)(=O)N1CCCn2nnc(CNC(C)=O)c2C1	17.55
CC(NC(=O)NCC1(N2CCCCC2)CCCCC1)c1nncn1C (stereo unspecified)	8.231
CCN(C(=O)c1ccc(-n2ncc(C#N)c2N)cc1)C1CCCC1	6.044
Cc1cc(C)c2c(c1)C(NC(=O)CSc1nnc[nH]1)CCO2 (stereo unspecified)	-3.671
c1ccc(Cn2ccnc2CN2CCOC(Cn3cccn3)C2)cc1 (stereo unspecified)	-9.069
Cn1cc(C2=CCN(CCCC(=O)Nc3ccc(C#N)cc3)CC2)cn1	-21.19
CC(O)CN1CCC(CNCc2ccccc2F)CC1 (stereo unspecified)	9.337
CN(Cc1ccccc1)c1cnn(CC2COCCO2)c(=O)c1 (stereo unspecified)	-4.239
Fc1cccc(-c2nc(CN3CCOC(Cn4cccn4)C3)co2)c1 (stereo unspecified)	9.76
CN1CCOC(C(=O)Nc2ccc3[nH]nnc3c2)C1 (stereo unspecified)	-26.35 & -20.34
CCOc1ncccc1C(=O)N1CCCC1Cn1nc(C)cc1C (stereo unspecified)	-1.877
CC(C)(C)c1cnc(CN2CCC(CO)CC2)o1	1.695
COc1cc(N2CCCC(CO)(Cc3ccccc3F)C2)ncn1 (stereo unspecified)	-6.807
CCc1ncc(C(=O)NCCNC(=O)Cc2ccc(F)cc2)s1	-2.361
CCOc1ccc(CN(CCOC)C(=O)c2ccncc2Cl)cc1	-8.402
CN(C)CCCNC(=O)c1cc(Cl)ccc1Cl	-6.319
CSc1ncccc1C(=O)NCc1ccc(CS(=O)(=O)NC(C)C)cc1	-4.057
CCN(CC)C(=O)Cn1ccc2cc(NC(=O)C3CC3)ccc21	-0.6595
COc1ccccc1Oc1ncccc1CNC(=O)C1COC(=O)N1 (stereo unspecified)	4.655
CCN(CC(C)O)C(=O)Nc1cnn(CCOC)c1 (stereo unspecified)	-21.75 & -27.13
Cc1ccc(-n2cccn2)cc1S(=O)(=O)N1C[C@H](C2CC2)[C@@H](N)C1	-0.1538
O=C(O)C(F)(F)F.[H][C@@]12C[C@@H](c3nc(C4CC4)cs3)O[C@]1([H])CN(c1ncc(F)cn1)C2	-20.62
Cc1cnc(CN(Cc2cccc(O)c2)CC2CC2)cn1	0.8174
CCc1ccc(CN(CCCn2ccnc2)Cc2ccc(C)s2)o1.O=C(O)CC(O)(CC(=O)O)C(=O)O	12.2
[H][C@@]12CO[C@@H](CNC(=O)c3cnn(C)c3)[C@]1([H])CCN(S(C)(=O)=O)C2	-7.764
Cc1[nH]nc2ncc(C(=O)N3CCN(CC(C)(C)O)CC3)cc12	-2.081
O=C(Cc1cccc(F)c1)NCCNCc1cccc(O)c1	0.9812
CC(Nc1cccc(CN2CCOC2=O)c1)C(=O)NC(=O)NC(C)(C)C (stereo unspecified)	3.81
Cc1n[nH]cc1C(=O)N1CCCC1c1cc[nH]n1 (stereo unspecified)	11.56
Cc1nc(C2CCCN2C(=O)COc2ccccc2)ncc1C(N)=O (stereo unspecified)	6.185
CN(C)CCN1CCC2(CCN(C(=O)c3cccc(F)c3)CC2)C1=O.O=C(O)C(F)(F)F	-4.874
N#CC1(C(=O)N2CCN(Cc3cscn3)CC2)CCCC1	1.562
O=C(O)CSc1nnc(-c2cn[nH]c2)n1-c1ccccc1Cl	5.089
[H][C@@]12NC(=O)N[C@@H](c3ccccc3C(=O)O)[C@]1([H])CCCO2	-2.525
O=C(O)C(F)(F)F.[H][C@]12CCC[C@@H](CN(C)C)[C@@]1([H])CN(c1cccnc1)C2	15.74
COc1ccc([C@@H]2CN(C(=O)CCC(F)(F)F)C[C@H]2NC(C)=O)cc1	2.575
O=C(O)C(F)(F)F.O=C(O)C(F)(F)F.O=C(O)C(F)(F)F.[H][C@@]12CN(Cc3cccnc3)C[C@]1([H])[C@@H](OC)CCN2Cc1c(C)noc1C	-3.986
O=C(NCc1cccnc1N1CCCCC1)c1ccc2[nH]nnc2c1	-2.865
O=C(CC1C=CCC1)Nc1ncn(CC(=O)N2CCCCCC2)n1 (stereo unspecified)	3.265
O=C(C[S+]([O-])Cc1ccccc1F)N1CCc2sccc2C1 (stereo unspecified)	-0.8705
[H][C@@]12CS(=O)(=O)C[C@]1([H])N(C(=O)c1cc(C(C)C)on1)CCN2C(=O)C(C)C	3.135
CC(C)c1nccn1C1CCCN(C(=O)c2cnc[nH]2)C1 (stereo unspecified)	-0.0815
Cc1ccc(-c2cc(N)c(=O)n(C(C)C(=O)NCC3CCCCC3)n2)s1 (stereo unspecified)	6.257
COCCN1CCC12CCN(C(=O)c1ccc3[nH]ccc3c1)C2 (stereo unspecified)	2.497
Cn1cnnc1-c1ccnc(NCc2ccc(Br)cc2)c1	7.432
Cn1cnc2c1CCN(C(C(=O)N1CCCCC1)c1ccccc1)C2 (stereo unspecified)	11.1
CS(=O)(=O)c1ccc(C(=O)N2CCCC(n3ccnc3)C2)cc1 (stereo unspecified)	8.091
CC(C)N(Cc1ccccc1)Cc1nnsc1Cl	-16.23
CO[C@@H]1CN(c2ccccc2)S(=O)(=O)[C@@]12CCN(C(=O)N(C)C)C2	-19.07
CC(C)(N)C(=O)N1CCCC(c2cncc(Oc3cccnc3)n2)C1 (stereo unspecified)	5.954
CCc1nc(CN(C)C2CCCN(c3cccnn3)C2)no1 (stereo unspecified)	7.222
CC(C)NC(=O)c1nnn(-c2cccc(C(F)(F)F)c2)c1N	-0.224
O=C(Cc1ccc(F)cc1)N1CCCC(c2n[nH]c3nccnc23)C1 (stereo unspecified)	0
[H][C@]12CCN(S(=O)(=O)c3ccc(OC)cc3)[C@@]1([H])CC[C@@H](COC)O2	-12.42
Cc1cc(O)c(OCC(=O)/N=c2\[nH]cc(C)s2)cn1	49.49 & 10.96 & -32.9

Some entries from above, unchanged:

- C1CN(c2nc(C3CC3)ns2)CCO1 : 8.29% & 2.983%
- Cc1ccc(-n2cccn2)cc1S(=O)(=O)N1C[C@H](C2CC2)[C@@H](N)C1 : -0.1538%
- O=C(C[S+]([O-])Cc1ccccc1F)N1CCc2sccc2C1 (stereo unspecified) : -0.8705%
- Fc1cccc(-c2nc(CN3CCOC(Cn4cccn4)C3)co2)c1 (stereo unspecified) : 9.76%
- O=C(NCc1cccnc1N1CCCCC1)c1ccc2[nH]nnc2c1 : -2.865%
- CCN(CC)C(=O)Cn1ccc2cc(NC(=O)C3CC3)ccc21 : -0.6595%